Results reported in PMC8299046.
Results are given in words; binding and its absence hold for the method and conditions named. Binding seen in cells or lysates may run through a third protein. Some binding calls cover weakened binding; strength is not graded here.

By UniProt entry, the sequences of proteins in these tests, tags left out.
UniProt P22561: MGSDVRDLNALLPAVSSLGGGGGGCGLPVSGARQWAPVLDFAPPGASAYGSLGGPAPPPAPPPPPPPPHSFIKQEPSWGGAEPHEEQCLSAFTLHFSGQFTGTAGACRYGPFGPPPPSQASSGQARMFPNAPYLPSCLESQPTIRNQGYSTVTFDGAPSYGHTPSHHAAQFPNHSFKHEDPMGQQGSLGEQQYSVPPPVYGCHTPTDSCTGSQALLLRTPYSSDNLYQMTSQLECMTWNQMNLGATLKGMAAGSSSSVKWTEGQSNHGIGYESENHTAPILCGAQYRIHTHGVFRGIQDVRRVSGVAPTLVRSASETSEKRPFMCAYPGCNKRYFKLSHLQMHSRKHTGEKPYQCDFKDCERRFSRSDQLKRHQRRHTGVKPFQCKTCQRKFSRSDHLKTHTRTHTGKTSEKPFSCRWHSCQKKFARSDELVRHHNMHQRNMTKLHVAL
UniProt Q8IY22: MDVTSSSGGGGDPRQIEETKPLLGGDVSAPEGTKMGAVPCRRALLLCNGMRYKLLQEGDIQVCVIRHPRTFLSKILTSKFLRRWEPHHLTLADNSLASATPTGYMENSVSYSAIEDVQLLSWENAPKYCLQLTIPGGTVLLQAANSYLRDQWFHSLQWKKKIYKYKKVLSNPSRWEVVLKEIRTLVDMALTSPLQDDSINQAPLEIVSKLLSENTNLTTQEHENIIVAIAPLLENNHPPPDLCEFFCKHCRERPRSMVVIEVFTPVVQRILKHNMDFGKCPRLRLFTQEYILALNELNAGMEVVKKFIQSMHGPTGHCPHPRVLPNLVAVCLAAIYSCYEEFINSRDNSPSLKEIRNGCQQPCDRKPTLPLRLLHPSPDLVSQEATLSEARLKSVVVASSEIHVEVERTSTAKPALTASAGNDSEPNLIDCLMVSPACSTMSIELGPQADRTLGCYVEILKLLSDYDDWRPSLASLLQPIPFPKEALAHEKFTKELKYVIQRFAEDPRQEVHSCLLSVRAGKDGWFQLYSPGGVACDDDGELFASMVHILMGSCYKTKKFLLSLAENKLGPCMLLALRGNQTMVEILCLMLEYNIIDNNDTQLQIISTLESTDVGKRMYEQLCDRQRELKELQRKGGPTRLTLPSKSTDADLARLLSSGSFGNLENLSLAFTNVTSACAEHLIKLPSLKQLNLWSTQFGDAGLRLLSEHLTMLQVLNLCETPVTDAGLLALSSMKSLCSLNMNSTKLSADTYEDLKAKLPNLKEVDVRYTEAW
UniProt Q9D486: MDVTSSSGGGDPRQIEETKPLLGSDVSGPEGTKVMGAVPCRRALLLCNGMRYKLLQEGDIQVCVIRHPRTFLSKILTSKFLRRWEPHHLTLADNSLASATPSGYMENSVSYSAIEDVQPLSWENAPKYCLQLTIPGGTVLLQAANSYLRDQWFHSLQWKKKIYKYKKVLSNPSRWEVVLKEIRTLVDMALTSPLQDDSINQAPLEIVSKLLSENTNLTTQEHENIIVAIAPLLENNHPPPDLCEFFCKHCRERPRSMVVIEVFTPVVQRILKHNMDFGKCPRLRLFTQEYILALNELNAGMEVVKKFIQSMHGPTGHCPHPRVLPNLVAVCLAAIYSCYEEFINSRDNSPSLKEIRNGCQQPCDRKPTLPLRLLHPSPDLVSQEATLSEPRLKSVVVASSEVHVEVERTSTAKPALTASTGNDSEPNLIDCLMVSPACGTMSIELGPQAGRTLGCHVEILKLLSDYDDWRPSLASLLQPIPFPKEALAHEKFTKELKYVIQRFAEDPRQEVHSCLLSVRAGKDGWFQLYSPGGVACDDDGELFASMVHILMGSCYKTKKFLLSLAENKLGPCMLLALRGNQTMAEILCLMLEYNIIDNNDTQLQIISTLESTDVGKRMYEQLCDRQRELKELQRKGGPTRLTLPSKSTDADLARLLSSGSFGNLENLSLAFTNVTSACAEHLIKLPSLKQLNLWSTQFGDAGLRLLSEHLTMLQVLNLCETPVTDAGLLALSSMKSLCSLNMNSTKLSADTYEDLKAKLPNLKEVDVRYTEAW

Tests used:
[1] = target: endogenous mouse Wt1 (mouse (endogenous in M15 cells, mouse podocyte cell line, mouse glomeruli)) (UniProt P22561); test: co-IP; podocyte cell line transfected with V5-tagged Cmip; WT1 immunoprecipitated from extracts, eluates blotted with anti-WT1 or anti-V5
[2] = target: CMIP expressed in podocytes of transgenic mice (human) (UniProt Q8IY22); test: co-IP; glomerular extracts of wild-type and Tg(+) mice; Cmip immunoprecipitated, eluates blotted with anti-WT1 and anti-CMIP
[3] = target: endogenous mouse Wt1 (mouse (endogenous in M15 cells, mouse podocyte cell line, mouse glomeruli)) (UniProt P22561); test: cross-linking + co-IP; M15 cells transfected with mouse Cmip, treated 20 min with 0.5 mM DSP or DMSO; lysis buffer with or without 8 M urea; IP with rabbit anti-WT1 (C-19), washes in RIPA buffer; blot with anti-CMIP and anti-WT1 (F-6)
[4] = target: endogenous mouse Wt1 (mouse (endogenous in M15 cells, mouse podocyte cell line, mouse glomeruli)) (UniProt P22561); test: co-IP; M15 cells (endogenous Wt1) transfected with Cmip expression plasmid or empty vector; lysates immunoprecipitated with anti-WT1 (polyclonal C19), eluates probed with anti-Cmip or anti-WT1 (Mab F6)

Substance: V5-tagged Cmip, expressed in a mouse podocyte cell line (from UniProt Q9D486 1-773)
- binding [1]: binds

Substance: endogenous mouse Wt1 (from UniProt P22561 1-449)
- binding [2]: binds

Substance: mouse Cmip, expressed in M15 cells (from UniProt Q9D486 1-773)
- binding [3]: binds
- binding [4]: binds
